Taken from: PubChem BioAssay AID1224827 (NIAID, 2016)

Purpose: 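Identify regulators of the macrophage TNF-alpha response to bacterial LPS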 (follow-up of hits)
Cells: RAW264.7 G9 mouse macrophage reporter clone
Reagents: single siRNA against mouse genes, 100 nM siRNA
Time to read-out: siRNA for 2 days, then LPS about 16 h
Challenge: bacterial lipopolysaccharide (LPS), 10 ng/ml, cells fixed after overnight (about 16 h) stimulation
Measurement: 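TNF promoter reporter red fluorescence in nuclei, background subtracted, normalised per plate and to non-targeting control siRNA, as z-scores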
Direction: TNF reporter z-score, mean: higher = stronger Tnf promoter reporter signal
Rule for the call: 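An siRNA is called active when its mean z-score over replicates is at least +2 or at most -2; control wells get no call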
Here is one part, drawn at random, of about 3,800 deposited reagents. About 2,200 of all reagents (57%) count as active. 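Active means a strong reporter change in either direction; calls are per siRNA, not per gene; qiagen siRNAs gave weaker effects.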 The numbers tell different reagents against one gene apart. Further read-outs or replicates are left out here. No sequences are given here.

Knock-down of Or1q1 (GeneID 258616) #1 came out at: TNF reporter z-score, mean -1.29; inactive.
Or1q1 (GeneID 258616) #2 gave TNF reporter z-score, mean -2.91; active.
Depletion of Or1q1 (GeneID 258616) #3 gave: TNF reporter z-score, mean -4.12; active.
Silencing of Or1q1 (GeneID 258616) #4 gave: TNF reporter z-score, mean 0.662; inactive.
Against Or1q1 (GeneID 258616) #5 the deposit lists TNF reporter z-score, mean -0.64; inactive.
Or1q1 (GeneID 258616) #6 showed TNF reporter z-score, mean -1.17; inactive.
After knock-down of Hnrnpa1 (GeneID 15382) #1, the screen gave TNF reporter z-score, mean 0.669; inactive.
Hnrnpa1 (GeneID 15382) #2 scored TNF reporter z-score, mean 0.7; inactive.
After knock-down of Hnrnpa1 (GeneID 15382) #3 the results were TNF reporter z-score, mean -4.36; active.
Depletion of Hnrnpa1 (GeneID 15382) #4 came out at: TNF reporter z-score, mean 5.13; active.
Hnrnpa1 (GeneID 15382) #5 showed TNF reporter z-score, mean 0.416; inactive.
With knock-down of Hnrnpa1 (GeneID 15382) #6, the screen gave TNF reporter z-score, mean -1.94; inactive.
Silencing of Ripk2 (GeneID 192656) #1 resulted in: TNF reporter z-score, mean 3.93; active.
Depletion of Ripk2 (GeneID 192656) #2 gave: TNF reporter z-score, mean -4.24; active.
Depletion of Ripk2 (GeneID 192656) #3 came out at: TNF reporter z-score, mean -4.93; active.
Depletion of Ripk2 (GeneID 192656) #4 resulted in: TNF reporter z-score, mean 3.52; active.
Ripk2 (GeneID 192656) #5 gave TNF reporter z-score, mean 3.13; active.
Against Ripk2 (GeneID 192656) #6, the values are TNF reporter z-score, mean -1.74; inactive.
Zfp935 (GeneID 71508) #1 gave TNF reporter z-score, mean 7.63; active.
Zfp935 (GeneID 71508) #2 showed TNF reporter z-score, mean -3.33; active.
Knock-down of Zfp935 (GeneID 71508) #3 gave: TNF reporter z-score, mean -3.59; active.
For Zfp935 (GeneID 71508) #4, the entry reads TNF reporter z-score, mean -1.29; inactive.
Against Zfp935 (GeneID 71508) #5, the entry reads TNF reporter z-score, mean -1.97; inactive.
Zfp935 (GeneID 71508) #6 scored TNF reporter z-score, mean -2.53; active.

Sorted by “TNF reporter z-score, mean” (highest first): 6 of the entries above
Ripk2 (GeneID 192656) #1 → TNF reporter z-score, mean: 3.93; outcome: active
Ripk2 (GeneID 192656) #4 → TNF reporter z-score, mean: 3.52; outcome: active
Hnrnpa1 (GeneID 15382) #5 → TNF reporter z-score, mean: 0.416; outcome: inactive
Hnrnpa1 (GeneID 15382) #6 → TNF reporter z-score, mean: -1.94; outcome: inactive
Ripk2 (GeneID 192656) #2 → TNF reporter z-score, mean: -4.24; outcome: active
Ripk2 (GeneID 192656) #3 → TNF reporter z-score, mean: -4.93; outcome: active

Continued:
Depletion of Tmem71 (GeneID 213068) #1 gave: TNF reporter z-score, mean -1.97; inactive.
For Tmem71 (GeneID 213068) #2, the values are TNF reporter z-score, mean -2.1; active.
Against Tmem71 (GeneID 213068) #3, the values are TNF reporter z-score, mean -5.91; active.
After knock-down of Tmem71 (GeneID 213068) #4 the results were TNF reporter z-score, mean 5.61; active.
After knock-down of Tmem71 (GeneID 213068) #5, the screen gave TNF reporter z-score, mean 0.758; inactive.
Tmem71 (GeneID 213068) #6 gave TNF reporter z-score, mean 0.643; inactive.
Against Scgb1a1 (GeneID 22287) #1 the deposit lists TNF reporter z-score, mean -3.35; active.
Scgb1a1 (GeneID 22287) #2 gave TNF reporter z-score, mean -3.75; active.
For Scgb1a1 (GeneID 22287) #3 the deposit lists TNF reporter z-score, mean -4.5; active.
For Scgb1a1 (GeneID 22287) #4 the deposit lists TNF reporter z-score, mean 2.15; active.
After knock-down of Scgb1a1 (GeneID 22287) #5, the screen gave TNF reporter z-score, mean 1.63; inactive.
For Scgb1a1 (GeneID 22287) #6, the values are TNF reporter z-score, mean 1.2; inactive.
Silencing of Mapre3 (GeneID 100732) #1 gave: TNF reporter z-score, mean -0.358; inactive.
Depletion of Mapre3 (GeneID 100732) #2 gave: TNF reporter z-score, mean -2.44; active.
For Mapre3 (GeneID 100732) #3, the values are TNF reporter z-score, mean -4.61; active.
Mapre3 (GeneID 100732) #4 gave TNF reporter z-score, mean 2.05; active.
Against Mapre3 (GeneID 100732) #5, the values are TNF reporter z-score, mean 1.16; inactive.
With knock-down of Mapre3 (GeneID 100732) #6, the record shows TNF reporter z-score, mean -2.93; active.
